# Test results as given in patent US11881606B2, “Conductive materials to drive bacterial carbon dioxide fixation” (The Government of the United States of America, as …, priority 2019, dated 2024).
# At least one structure is not confirmed: it was looked up by name or label, or the drawing left a doubt.
# Legend:
# Biocathode MCL [1] = test: Current production by Biocathode MCL on electrode set at 0.310 V with antibiotics; type: cell-based; conditions: kanamycin at 25 μg/ml; electrode potential set at 0.310 V
# Procedure: (§1) Biocathode MCL was cultivated in artificial seawater (ASW) medium containing 27.50 g NaCl, 3.80 g MgCl2·6H2O, 6.78 g MgSO4·H2O, 0.72 g KCl, 0.62 g NaHCO3, 5.58 g CaCl2·H2O, 1.00 g NH4Cl, 0.05 g K2HPO4, and 1 ml Wolfe's Trace Mineral Solution per liter. The NaHCO3 was autoclaved in a separate sealed bottle and added after cooling to avoid precipitation. The medium was adjusted to a pH between 6.5 and 6.8 by briefly bubbling with 100% CO2. Source cultures were continuously maintained in 2 liter, 3-electrode reactors with carbon cloth as working and counter electrodes. The working electrode was poised at 0.310 V SHE (standard hydrogen electrode).
# For these experiments, bioelectrochemical systems (BES) were 175 ml glass electrochemical reactors (Pine Instruments, Grove City, Pa.). Working electrodes were either 10.5 cm^2 graphite flags (Tri-Gemini, Hillside, Ill.) or carbon cloth (Fuel Cell Earth, Woburn, Mass.) cut to roughly 3.5×1.5 cm for an area of 10.5 cm^2. Counter electrodes were carbon cloth electrodes cut to approximately 3.5×1.5 cm. Graphite flags were sanded down prior to cleaning. Both carbon cloth and graphite flag electrodes were soaked overnight in 1 M hydrochloric acid, then rinsed and soaked overnight in ultrapure deionized water (MilliQ, Millipore-Sigma, Burlington, Mass.). Electrodes were suspended in the reactors from titanium wires, attached by titanium screws. […]
# Biocathode MCL [2] = test: Effect of antibiotics and cyanide on the open circuit potential (OCP) of electrodes with Biocathode MCL biofilm; type: cell-based
# Procedure: FIGS. 3A and 3B illustrate the effect of the addition of antibiotics on the open circuit potential (OCP). […]
# as §1
# For these experiments, bioelectrochemical systems (BES) were 175 ml glass electrochemical reactors (Pine Instruments, Grove City, Pa.). Working electrodes were either 10.5 cm^2 graphite flags (Tri-Gemini, Hillside, Ill.) or carbon cloth (Fuel Cell Earth, Woburn, Mass.) cut to roughly 3.5×1.5 cm for an area of 10.5 cm^2. Counter electrodes were carbon cloth electrodes cut to approximately 3.5×1.5 cm. Graphite flags were sanded down prior to cleaning. […]
compound,measurement,setting,value
NC[C@H]1O[C@H](O[C@H]2[C@H](O)[C@@H](O[C@H]3O[C@H](CO)[C@@H](O)[C@H](N)[C@H]3O)[C@H](N)C[C@@H]2N)[C@H](O)[C@@H](O)[C@@H]1O [kanamycin],Current production,Biocathode MCL [1],inhibited
same,OCP at end of drop,Biocathode MCL [2]; added 10 days after inoculation,below the pre-inoculation OCP
same,Effect on OCP,"Biocathode MCL [2]; added 27 days after inoculation, after 2 days",did not cause a decrease in OCP
